Assay results from patent publication US12252492B2, “Substituted fused pyrrolo-diazepinones and uses thereof” (Northwestern University, priority 2018, dated 2025).

Test system: NCI60 Cell Line Panel
Assay: NCI60 one-dose screen, whole panel statistics
Type: cell-based, human
Conditions: 10^-5 M; for Growth Percent, Delta: delta over the NCI60 cell line panel; for Growth Percent, Range: range over the NCI60 cell line panel
Protocol: Anti-cancer activity screening of all compounds was performed by the NCI Developmental Therapeutics Program (DTP) through their NCI60 screening initiative. Assay details can be found at the website dtp.cancer.gov/discovery_development/nci-60/methodology.htm. Information from this website is reproduced here for convenience.
As of early 2007 all compounds submitted to the NCI 60 Cell screen are tested initially at a single high dose (10^-5 M) in the full NCI 60 cell panel. Only compounds which satisfy pre-determined threshold inhibition criteria in a minimum number of cell lines will progress to the full 5-dose assay. The threshold inhibition criteria for progression to the 5-dose screen was selected to efficiently capture compounds with anti-proliferative activity based on careful analysis of historical DTP screening data. The threshold criteria may be updated as additional data becomes available.
The One-dose data will be reported as a mean graph of the percent growth of treated cells and will be similar in appearance to mean graphs from the 5-dose assay. The number reported for the One-dose assay is growth relative to the no-drug control, and relative to the time zero number of cells. This allows detection of both growth inhibition (values between 0 and 100) and lethality (values less than 0). This is the same as for the 5-dose assay, described below. For example, a value of 100 means no growth inhibition. A value of 40 would mean 60% growth inhibition. A value of 0 means no net growth over the course of the experiment. A value of −40 would mean 40% lethality. A value of −100 means all cells are dead. Information from the One-dose mean graph is available for COMPARE analysis.
The human tumor cell lines of the cancer screening panel are grown in RPMI 1640 medium containing 5% fetal bovine serum and 2 mM L-glutamine. For a typical screening experiment, cells are inoculated into 96 well microtiter plates in 100 μL at plating densities ranging from 5,000 to 40,000 cells/well depending on the doubling time of individual cell lines. After cell inoculation, the microtiter plates are incubated at 37° C., 5% CO2, 95% air and 100% relative humidity for 24 h prior to addition of experimental drugs.
After 24 h, two plates of each cell line are fixed in situ with TCA, to represent a measurement of the cell population for each cell line at the time of drug addition (Tz). Experimental drugs are solubilized in dimethyl sulfoxide at 400-fold the desired final maximum test concentration and stored frozen prior to use. […]
Following drug addition, the plates are incubated for an additional 48 h at 37° C., 5% CO2, 95% air, and 100% relative humidity. […] Bound stain is subsequently solubilized with 10 mM trizma base, and the absorbance is read on an automated plate reader at a wavelength of 515 nm. […]

Row | SMILES | Growth Percent, Delta [%] | Growth Percent, Range [%]
1 | CC(=O)N1c2ccccc2NC2=C(C(=O)N(C)C2(C)C)C1c1ccccc1 (stereo not shown) [NUCC-60872] | 109.26 | 169.57
2 | CC(=O)N1c2ccccc2NC2=C(C(=O)N(Cc3ccccc3)C2(C)C)C1c1ccco1 (stereo not shown) [NUCC-608455] | 79.72 | 139.16
